Experimental findings from publication PMC3714271 are described below.

In this test the target is dynein intermediate chain (human (endogenous in HEK293T)). In words: co-IP; anti-DIC immunoprecipitation from HEK293T extracts (untransfected or expressing FLAG-CDK5RAP2 fragments); lysis buffer 25 mM Tris-HCl pH 7.4, 0.5% NP40, 100 mM NaCl; at least 2 h, 4°C; normal mouse IgG as control.

These are yes or no findings as the source states them, for the method shown. Binding seen in cells or lysates may run through a third protein. Binding can be weak; no strength is given. Where a sequence is shown, tags or fusion partners need not be part of it.

B1: FLAG-tagged CDK5RAP2 construct 1–706 (domain or fragment, UniProt Q96SN8 1-706)
chain: MMDLVLEEDVTVPGTLSGCSGLVPSVPDDLDGINPNAGLGNGLLPNVSEETVSPTRARNMKDFENQITELKKENFNLKLRIYFLEERMQQEFHGPTEHIYKTNIELKVEVESLKRELQEREQLLIKASKAVESLAEAGGSEIQRVKEDARKKVQQVEDLLTKRILLLEKDVTAAQAELEKAFAGTETEKALRLRLESKLSEMKKMHEGDLAMALVLDEKDRLIEELKLSLKSKEALIQCLKEEKSQMACPDENVSSGELRGLCAAPREEKERETEAAQMEHQKERNSFEERIQALEEDLREKEREIATEKKNSLKRDKAIQGLTMALKSKEKKVEELNSEIEKLSAAFAKAREALQKAQTQEFQGSEDYETALSGKEALSAALRSQNLTKSTENHRLRRSIKKITQELSDLQQERERLEKDLEEAHREKSKGDCTIRDLRNEVEKLRNEVNEREKAMENRYKSLLSESNKKLHNQEQVIKHLTESTNQKDVLLQKFNEKDLEVIQQNCYLMAAEDLELRSEGLITEKCSSQQPPGSKTIFSKEKKQSSDYEELIQVLKKEQDIYTHLVKSLQESDSINNLQAELNKIFALRKQLEQDVLSYQNLRKTLEEQISEIRRREEESFSLYSDQTSYLSICLEENNRFQVEHFSQEELKKKVSDLIQLVKELYTDNQHLKKTIFDLSCMGFQGNGFPDRLASTEQTELLAS
Take B1: the binding result is listed as “no binding”.

B2: FLAG-tagged CDK5RAP2 construct spanning residues 706–1893 (domain or fragment, UniProt Q96SN8 706-1893)
chain: SKEDEDTIKIGEDDEINFLSDQHLQQSNEIMKDLSKGGCKNGYLRHTESKISDCDGAHAPGCLEEGAFINLLAPLFNEKATLLLESRPDLLKVVRELLLGQLFLTEQEVSGEHLDGKTEKTPKQKGELVHFVQTNSFSKPHDELKLSCEAQLVKAGEVPKVGLKDASVQTVATEGDLLRFKHEATREAWEEKPINTALSAEHRPENLHGVPGWQAALLSLPGITNREAKKSRLPILIKPSRSLGNMYRLPATQEVVTQLQSQILELQGELKEFKTCNKQLHQKLILAEAVMEGRPTPDKTLLNAQPPVGAAYQDSPGEQKGIKTTSSVWRDKEMDSDQQRSYEIDSEICPPDDLASLPSCKENPEDVLSPTSVATYLSSKSQPSAKVSVMGTDQSESINTSNETEYLKQKIHDLETELEGYQNFIFQLQKHSQCSEAIITVLCGTEGAQDGLSKPKNGSDGEEMTFSSLHQVRYVKHVKILGPLAPEMIDSRVLENLKQQLEEQEYKLQKEQNLNMQLFSEIHNLQNKFRDLSPPRYDSLVQSQARELSLQRQQIKDGHGICVISRQHMNTMIKAFEELLQASDVDYCVAEGFQEQLNQCAELLEKLEKLFLNGKSVGVEMNTQNELMERIEEDNLTYQHLLPESPEPSASHALSDYETSEKSFFSRDQKQDNETEKTSVMVNSFSQDLLMEHIQEIRTLRKRLEESIKTNEKLRKQLERQGSEFVQGSTSIFASGSELHSSLTSEIHFLRKQNQALNAMLIKGSRDKQKENDKLRESLSRKTVSLEHLQREYASVKEENERLQKEGSEKERHNQQLIQEVRCSGQELSRVQEEVKLRQQLLSQNDKLLQSLRVELKAYEKLDEEHRRLREASGEGWKGQDPFRDLHSLLMEIQALRLQLERSIETSSTLQSRLKEQLARGAEKAQEGALTLAVQAVSIPEVPLQPDKHDGDKYPMESDNSFDLFDSSQAVTPKSVSETPPLSGNDTDSLSCDSGSSATSTPCVSRLVTGHHLWASKNGRHVLGLIEDYEALLKQISQGQRLLAEMDIQTQEAPSSTSQELGTKGPHPAPLSKFVSSVSTAKLTLEEAYRRLKLLWRVSLPEDGQCPLHCEQIGEMKAEVTKLHKKLFEQEKKLQNTMKLLQLSKRQEKVIFDQLVVTHKILRKARGNLELRPGGAHPGTCSPSRPGS
On to B2, for which the binding entry is “binds”.
